Reference: publication PMC11661440
No constants are given. Whether binding was seen depends on the method and setting. Some binding calls cover weakened binding; strength is not graded here. Tags and fused reporters may be left off the sequences shown.

Target: YFP-TNIK (full-length wild type) (human), Q9UKE5
Test: cross-linking; disulfide-linked species of YFP-TNIK immunoprecipitated from HEK293T lysate on GFP-Trap beads (washed with 500 mM NaCl); oxidised with 0, 0.2, 0.5 and 1 mM H2O2 at 30°C for 15 min; nonreducing SDS-PAGE and Western blotting; both purified
Settings: remark: other sources report otherwise

B1: YFP-TNIK (full-length wild type), Q9UKE5 1-1360 (protein)
chain: MASDSPARSLDEIDLSALRDPAGIFELVELVGNGTYGQVYKGRHVKTGQLAAIKVMDVTGDEEEEIKQEINMLKKYSHHRNIATYYGAFIKKNPPGMDDQLWLVMEFCGAGSVTDLIKNTKGNTLKEEWIAYICREILRGLSHLHQHKVIHRDIKGQNVLLTENAEVKLVDFGVSAQLDRTVGRRNTFIGTPYWMAPEVIACDENPDATYDFKSDLWSLGITAIEMAEGAPPLCDMHPMRALFLIPRNPAPRLKSKKWSKKFQSFIESCLVKNHSQRPATEQLMKHPFIRDQPNERQVRIQLKDHIDRTKKKRGEKDETEYEYSGSEEEEEENDSGEPSSILNLPGESTLRRDFLRLQLANKERSEALRRQQLEQQQRENEEHKRQLLAERQKRIEEQKEQRRRLEEQQRREKELRKQQEREQRRHYEEQMRREEERRRAEHEQEYIRRQLEEEQRQLEILQQQLLHEQALLLEYKRKQLEEQRQAERLQRQLKQERDYLVSLQHQRQEQRPVEKKPLYHYKEGMSPSEKPAWAKEVEERSRLNRQSSPAMPHKVANRISDPNLPPRSESFSISGVQPARTPPMLRPVDPQIPHLVAVKSQGPALTASQSVHEQPTKGLSGFQEALNVTSHRVEMPRQNSDPTSENPPLPTRIEKFDRSSWLRQEEDIPPKVPQRTTSISPALARKNSPGNGSALGPRLGSQPIRASNPDLRRTEPILESPLQRTSSGSSSSSSTPSSQPSSQGGSQPGSQAGSSERTRVRANSKSEGSPVLPHEPAKVKPEESRDITRPSRPASYKKAIDEDLTALAKELRELRIEETNRPMKKVTDYSSSSEESESSEEEEEDGESETHDGTVAVSDIPRLIPTGAPGSNEQYNVGMVGTHGLETSHADSFSGSISREGTLMIRETSGEKKRSGHSDSNGFAGHINLPDLVQQSHSPAGTPTEGLGRVSTHSQEMDSGTEYGMGSSTKASFTPFVDPRVYQTSPTDEDEEDEESSAAALFTSELLRQEQAKLNEARKISVVNVNPTNIRPHSDTPEIRKYKKRFNSEILCAALWGVNLLVGTENGLMLLDRSGQGKVYNLINRRRFQQMDVLEGLNVLVTISGKKNKLRVYYLSWLRNRILHNDPEVEKKQGWITVGDLEGCIHYKVVKYERIKFLVIALKNAVEIYAWAPKPYHKFMAFKSFADLQHKPLLVDLTVEEGQRLKVIFGSHTGFHVIDVDSGNSYDIYIPSHIQGNITPHAIVILPKTDGMEMLVCYEDEGVYVNTYGRITKDVVLQWGEMPTSVAYIHSNQIMGWGEKAIEIRSVETGHLDGVFMHKRAQRLKFLCERNDKVFFASVRSGGSSQVFFMTLNRNSMMNW
For B1, which binding is on record?
The binding was “binds”.
